From PubChem BioAssay AID1487 (National Center for Advancing Translational Sciences (NCATS), 2009)
This is one part of the list. The main result of the screen is listed elsewhere. These columns were measured beside it and carry no call. Compounds called inactive in the main read-out are mostly missing here. Words in brackets tell the shape of the fitted curve; partial curves, single points and poor fits give uncertain potencies.

Assay: qHTS Assay for Modulators of Lamin A Splicing
Conditions: HeLa LMNA splicing GFP/RFP minigene ratio, 48 h
Procedure, shortened: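 S3 HeLa stable clones carrying a lamin A-EGFP splicing minigene plus DsRed2 were seeded at 600 cells/well in Opti-MEM with 2% FBS, pin-dosed and incubated 48 h at 37°C. Acumen cytometry (488 nm) gave the GFP/RFP total-intensity ratio.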

[1] = measured here: RFP viability control channel
[2] = measured here: GFP splicing reporter channel

CN(Cc1cn(C)c2ccccc12)C(=S)Nc1cc(F)cc(F)c1
AC50 [1]: 22.4 µM [rising, single point]

COc1ccc(C(=O)N=c2sc3ccccc3n2C)cc1OC
AC50 [2]: 0.00501 µM [rising, full curve, poor fit]

CCC1CCCCN1CC(=O)c1c(C)[nH]c2ccccc12 (stereo not given)
AC50 [2]: 17.8 µM [rising, partial curve, poor fit]
AC50 [1]: 12.6 µM [rising, single point]

Cc1cc(C)c2nc(NC(=O)C3CC(=O)N(Cc4ccco4)C3)sc2c1 (stereo not given)
AC50 [1]: 0.178 µM [falling, full curve, poor fit]

CCN1CCc2c(sc(-n3cccc3)c2C(C)NC(=O)Nc2ccccc2C)C1 (stereo not given)
AC50 [1]: 11.2 µM [rising, single point]

COc1ccc(C(NC(=O)c2cccnc2)c2cc(Cl)c3cccnc3c2O)cc1OC (stereo not given)
AC50 [2]: 28.2 µM [falling, single point]
AC50 [1]: 12.6 µM [falling, single point]

COc1ccccc1CNC(=O)c1cc2ccc3ccc(C)[nH]c3c2n1
AC50 [2]: 20 µM [rising, single point]
AC50 [1]: 22.4 µM [rising, single point]

COC(=O)C1=CN(Cc2cccs2)C=C(C(=O)OC)C1c1cccc(Cl)c1
AC50 [2]: 31.6 µM [rising, single point]

COC(=O)c1ccc(CSc2nnc(CS(=O)Cc3ccc(Br)cc3)n2-c2ccccc2)cc1 (stereo not given)
AC50 [2]: 11.2 µM [rising, single point]
AC50 [1]: 14.1 µM [rising, single point]

CC1CCN(S(=O)(=O)c2cc(Br)cc(C(=O)NC3=NCCS3)c2)CC1
AC50 [2]: 12.6 µM [rising, single point]

O=C(Nc1ccc(Cl)cc1)N1CCC(c2nc(-c3ccccc3Cl)no2)CC1
AC50 [2]: 10 µM [rising, partial curve]
AC50 [1]: 12.6 µM [rising, partial curve]

N#C/C(=C/c1ccc(-c2ccc(Br)cc2)o1)C(=O)NC1CCCCC1
AC50 [2]: 35.5 µM [rising, single point]
AC50 [1]: 35.5 µM [rising, partial curve]

CC(C)OC(=O)c1cccc(NC(=O)CSc2nnc(N)s2)c1
AC50 [1]: 35.5 µM [falling, single point]

CCCCNC(=O)CSc1nc2ccccc2c(=O)n1C1CCCC1
AC50 [2]: 12.6 µM [rising, single point]
AC50 [1]: 15.8 µM [rising, single point]

Cc1cc([N+](=O)[O-])c2[nH]c(C(=O)N/N=C/c3ccccc3C(=O)O)c(-c3ccccc3)c2c1
AC50 [2]: 35.5 µM [falling, single point]
AC50 [1]: 35.5 µM [falling, single point]

COCCn1c(C)cc(/C=N/NC(=O)c2cccnc2)c1C
AC50 [1]: 35.5 µM [rising, partial curve, poor fit]

COc1ccc(CCN2C(=O)CC(Cc3ccc(Br)cc3)C2=O)cc1OC (stereo not given)
AC50 [2]: 22.4 µM [rising, single point]
AC50 [1]: 28.2 µM [rising, single point]

CC1CN(c2nc3ccccc3nc2C(C#N)C(=O)NC2CCCCC2)CC(C)O1 (stereo not given)
AC50 [2]: 31.6 µM [rising, single point]

N#Cc1cc([N+](=O)[O-])ccc1N1CCCC1
AC50 [2]: 10 µM [rising, partial curve, poor fit]
AC50 [1]: 12.6 µM [rising, partial curve, poor fit]

CN1C(=O)/C(=C/c2ccco2)SC1=Nc1cccc(C(=O)O)c1
AC50 [2]: 0.141 µM [falling, partial curve, poor fit]
AC50 [1]: 11.2 µM [falling, partial curve, poor fit]

N#CCCn1c2ccccc2c2nc3ccccc3nc21
AC50 [1]: 12.6 µM [rising, partial curve, poor fit]

OC1CCN(c2cc(-c3ccccc3)nc3cc(-c4ccc(F)cc4)nn23)CC1
AC50 [2]: 35.5 µM [falling, single point]
AC50 [1]: 35.5 µM [falling, single point]

O=C(Nc1ccccc1Br)N1CCC(CN2CCCC2)CC1
AC50 [1]: 0.0316 µM [falling, full curve, poor fit]

CCOc1ccccc1Cn1c(=O)oc2ccc(C)cc21
AC50 [1]: 31.6 µM [rising, single point]

O=C(c1cccc(COc2cccc3ccccc23)c1)N1CCCC1
AC50 [1]: 22.4 µM [rising, single point]

c1ccc(-c2cc3c(N4CCN(c5ccccc5)CC4)ncnc3s2)cc1
AC50 [1]: 0.891 µM [rising, full curve]

COc1ccc(NS(=O)(=O)c2cc(NC(=O)c3cnccn3)ccc2N2CCCC2)cc1
AC50 [2]: 3.98 µM [falling, partial curve, poor fit]

Cc1ccc(N(CC(=O)Nc2ccc(F)cc2)S(=O)(=O)N2CCCC2)cc1
AC50 [2]: 31.6 µM [rising, single point]
AC50 [1]: 35.5 µM [rising, single point]

CCC(C)c1ccccc1NC(=S)Nc1cccnc1 (stereo not given)
AC50 [2]: 35.5 µM [rising, single point]

O=C(NC(=S)N1CCN(c2ccc([N+](=O)[O-])cc2)CC1)c1ccc(F)cc1
AC50 [2]: 22.4 µM [rising, single point]

COc1ccc(CN2CCN(C(=O)c3cc(-c4cccnc4)nc4ccc(Cl)cc34)CC2)c(OC)c1OC
AC50 [2]: 0.0355 µM [rising, full curve, poor fit]
AC50 [1]: 22.4 µM [rising, partial curve, poor fit]

CCN1C(=O)c2cccc3c(S(=O)(=O)Nc4ccc(OC)cc4OC)ccc1c23
AC50 [2]: 12.6 µM [rising, partial curve]
AC50 [1]: 14.1 µM [rising, partial curve]

CCC1CN(C(=O)C2CCN(S(=O)(=O)c3c(C)noc3/C=C/c3ccccc3F)CC2)c2cc(C)ccc2O1 (stereo not given)
AC50 [1]: 0.0562 µM [rising, full curve, poor fit]

COC(=O)c1[nH]c2ccccc2c1NC(=O)CN1CC(C)OC(C)C1 (stereo not given)
AC50 [2]: 3.16 µM [rising, partial curve]

O=C(CSc1nnc(-c2ccco2)n1Cc1ccccc1)NC(=O)NCc1ccccc1
AC50 [1]: 20 µM [rising, single point]

Cc1ccc(C)c(OCc2ccc(C(=O)N3N=C(C(F)F)CC3(O)C(F)F)o2)c1 (stereo not given)
AC50 [1]: 17.8 µM [rising, single point]

CCOc1ccc(-c2nnc(-c3ccncc3)o2)cc1OCC
AC50 [2]: 3.16 µM [rising, partial curve, poor fit]

CCN1CCN(c2cc(C)c3cc(NC(=O)c4ccc(OC)c(OC)c4)ccc3n2)CC1
AC50 [1]: 20 µM [rising, single point]

CCc1cccc(NC(=O)C2CCN(S(=O)(=O)c3cccc(-c4noc(C)n4)c3)CC2)c1
AC50 [1]: 0.0282 µM [falling, full curve]

NS(=O)(=O)c1cc2c(cc1Cl)NC(C(Cl)Cl)NS2(=O)=O (stereo not given)
AC50 [2]: 0.0891 µM [rising, full curve, poor fit]

COc1ccc(C2c3cccn3CCN2S(=O)(=O)c2ccc([N+](=O)[O-])cc2)cc1 (stereo not given)
AC50 [1]: 12.6 µM [rising, partial curve, poor fit]

O=C(Nc1ccc(F)cc1)c1nc[nH]c1C(=O)Nc1ccccc1[N+](=O)[O-]
AC50 [2]: 3.16 µM [falling, full curve]

CCOc1ccc(NC(=S)N(CCc2c(C)[nH]c3ccc(C)cc23)Cc2cccnc2)cc1
AC50 [1]: 0.0631 µM [rising, partial curve, poor fit]

CCCCc1cc2c(cn1)=C(OC(=O)c1cccs1)C(C)(OC(=O)CC)C(=O)C=2 (stereo not given)
AC50 [2]: 0.00158 µM [rising, full curve, poor fit]

CN1CCN(C2Cc3ccccc3Sc3ccc(Cl)cc32)CC1 (stereo not given)
AC50 [2]: 28.2 µM [falling, partial curve, poor fit]
AC50 [1]: 35.5 µM [falling, partial curve, poor fit]

CNc1ccccc1C(C)(C)c1cc(-c2ccco2)n[nH]1
AC50 [2]: 10 µM [rising, partial curve, poor fit]
AC50 [1]: 12.6 µM [rising, single point]

O=C(CSc1nnc(COc2cccc3cccnc23)o1)c1ccc(F)cc1
AC50 [2]: 11.2 µM [rising, partial curve]
AC50 [1]: 11.2 µM [rising, single point]

Cc1nn(C)c2c1c(C(F)(F)F)cc(=O)n2CC(=O)N1CCC(C)CC1
AC50 [2]: 35.5 µM [rising, single point]
AC50 [1]: 35.5 µM [rising, single point]

CC(C)c1ccc(CN(C(=O)C2COc3ccccc3O2)C2CCS(=O)(=O)C2)cc1 (stereo not given)
AC50 [2]: 0.316 µM [falling, full curve]
AC50 [1]: 0.282 µM [falling, full curve]

O=C(c1cc2cc([N+](=O)[O-])ccc2oc1=O)N1CCOCC1
AC50 [1]: 11.2 µM [rising, single point]

COc1ccc(S(=O)(=O)NCC2CCCN(C(=O)C=C(C)C)C2)cc1 (stereo not given)
AC50 [2]: 1.26 µM [falling, full curve]
AC50 [1]: 0.0501 µM [falling, full curve]

CC(=O)N1CC=CC1(CC(C)C)C(=O)NCCN1CCOCC1 (stereo not given)
AC50 [2]: 3.98 µM [falling, partial curve, poor fit]
AC50 [1]: 5.62 µM [falling, partial curve, poor fit]

Cc1ccc(-n2nnnc2SC(C)C(=O)NCC(=O)Nc2ccc(F)c(F)c2F)c(C)c1 (stereo not given)
AC50 [1]: 11.2 µM [rising, partial curve]
